# Test results taken from the supplement of paper PMC8728848.
# The other results are listed elsewhere or left out.
# B1: FimA-N2 (Actinomyces oris) (protein)
# chain: MHHHHHHSSGVDLGTENLYFQSNAWIYDVNVYPKNEAIDVDKTIQAQKLNGYGVGSLIKFPVESTAPTLDAKSFYKYFQLKDTLDERLSEVTATDVSLEGTPLQPTDYKVETKQQTVTVTFTAEGLKKIKAAPGKKVSAVFQGKVTKAGNGAITNRAQVISDTLYAEQPPTPETPPTDPENPPTSDEVISRWGDLSIKKVDTHQQGQTKA
# Legend:
# Assay in all cases: glycan array binding signal (z-score within array); higher = stronger binding
# Settings in all cases: glycan notation: IUPAC condensed, linker removed
# Fuc(a1-2)Gal = target: Fuc(a1-2)Gal
# Procedure, shortened: (§1)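 The binding signal is a Z-score computed within each array. Data were drawn from 3228 arrays in the Consortium for Functional Glycomics database, restricted to those with a known protein sequence. Scores were averaged over arrays of the same protein sequence at different concentrations or buffers, and over linkers, and negative values can be taken as non-binding.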
# Fuc(a1-2)Gal(b1-3)GalNAc = target: Fuc(a1-2)Gal(b1-3)GalNAc
# Procedure, shortened: as §1
# [1] = target: Fuc(a1-2)Gal(b1-3)GalNAc(a1-3)[Fuc(a1-2)]Gal(b1-4)Glc
# Procedure, shortened: as §1
# [2] = target: Fuc(a1-2)Gal(b1-3)GalNAc(a1-3)[Fuc(a1-2)]Gal(b1-4)GlcNAc
# Procedure, shortened: as §1
# [3] = target: Fuc(a1-2)Gal(b1-3)GalNAc(b1-3)Gal
# Procedure, shortened: as §1
# [4] = target: Fuc(a1-2)Gal(b1-3)GalNAc(b1-3)Gal(a1-4)Gal(b1-4)Glc
# Procedure, shortened: as §1
# [5] = target: Fuc(a1-2)Gal(b1-3)GalNAc(b1-4)[Neu5Ac(a2-3)]Gal(b1-4)Glc
# Procedure, shortened: as §1
# Fuc(a1-2)Gal(b1-3)GlcNAc = target: Fuc(a1-2)Gal(b1-3)GlcNAc
# Procedure, shortened: as §1
# [6] = target: Fuc(a1-2)Gal(b1-3)GlcNAc(b1-2)Man(a1-3)[Fuc(a1-2)Gal(b1-3)GlcNAc(b1-2)Man(a1-6)]Man(b1-4)GlcNAc(b1-4)GlcNAc
# Procedure, shortened: as §1
# [7] = target: Fuc(a1-2)Gal(b1-3)GlcNAc(b1-2)Man(a1-3)[Fuc(a1-2)Gal(b1-3)GlcNAc(b1-2)Man(a1-6)]Man(b1-4)GlcNAc(b1-4)[Fuc(a1-6)]GlcNAc
# Procedure, shortened: as §1
# [8] = target: Fuc(a1-2)Gal(b1-3)GlcNAc(b1-3)Gal(b1-4)Glc
# Procedure, shortened: as §1
# [9] = target: Fuc(a1-2)Gal(b1-3)GlcNAc(b1-3)GalNAc
# Procedure, shortened: as §1
# [10] = target: Fuc(a1-2)Gal(b1-3)GlcNAc(b1-3)[Fuc(a1-2)Gal(b1-3)GlcNAc(b1-6)]GalNAc
# Procedure, shortened: as §1
# [11] = target: Fuc(a1-2)Gal(b1-3)GlcNAc(b1-3)[Gal(b1-4)GlcNAc(b1-6)]Gal(b1-4)Glc
# Procedure, shortened: as §1
# [12] = target: Fuc(a1-2)Gal(b1-3)GlcNAc(b1-3)[Neu5Ac(a2-6)Gal(b1-4)GlcNAc(b1-6)]Gal(b1-4)Glc
# Procedure, shortened: as §1
# [13] = target: Fuc(a1-2)Gal(b1-3)GlcNAc6S
# Procedure, shortened: as §1
# [14] = target: Fuc(a1-2)Gal(b1-3)[Fuc(a1-4)]GlcNAc
# Procedure, shortened: as §1
# [15] = target: Fuc(a1-2)Gal(b1-3)[Fuc(a1-4)]GlcNAc(b1-2)Man(a1-3)[Fuc(a1-2)Gal(b1-3)[Fuc(a1-4)]GlcNAc(b1-2)Man(a1-3)]Man(b1-4)GlcNAc(b1-4)GlcNAc
# Procedure, shortened: as §1
# [16] = target: Fuc(a1-2)Gal(b1-3)[Fuc(a1-4)]GlcNAc(b1-2)Man(a1-3)[Fuc(a1-2)Gal(b1-3)[Fuc(a1-4)]GlcNAc(b1-2)Man(a1-6)]Man(b1-4)GlcNAc(b1-4)[Fuc(a1-6)]GlcNAc(b1-4)[Fuc(a1-6)]GlcNAc
# Procedure, shortened: as §1
# [17] = target: Fuc(a1-2)Gal(b1-3)[Fuc(a1-4)]GlcNAc(b1-3)[Fuc(a1-3)[Gal(b1-4)]GlcNAc(b1-6)]Gal(b1-4)Glc
# Procedure, shortened: as §1
# [18] = target: Fuc(a1-2)Gal(b1-3)[Fuc(a1-4)]GlcNAc(b1-3)[Gal(b1-4)GlcNAc(b1-6)]Gal(b1-4)Glc
# Procedure, shortened: as §1
# Fuc(a1-2)Gal(b1-4)Glc = target: Fuc(a1-2)Gal(b1-4)Glc
# Procedure, shortened: as §1
# Fuc(a1-2)Gal(b1-4)Glc6S = target: Fuc(a1-2)Gal(b1-4)Glc6S
# Procedure, shortened: as §1
# Fuc(a1-2)Gal(b1-4)GlcNAc = target: Fuc(a1-2)Gal(b1-4)GlcNAc
# Procedure, shortened: as §1
# [19] = target: Fuc(a1-2)Gal(b1-4)GlcNAc(b1-2)Man
# Procedure, shortened: as §1
# [20] = target: Fuc(a1-2)Gal(b1-4)GlcNAc(b1-2)Man(a1-3)[Fuc(a1-2)Gal(b1-4)GlcNAc(b1-2)Man(a1-6)]Man(b1-4)GlcNAc(b1-4)GlcNAc
# Procedure, shortened: as §1
# [21] = target: Fuc(a1-2)Gal(b1-4)GlcNAc(b1-2)Man(a1-3)[Fuc(a1-2)Gal(b1-4)GlcNAc(b1-2)Man(a1-6)]Man(b1-4)GlcNAc(b1-4)[Fuc(a1-6)]GlcNAc
# Procedure, shortened: as §1
# [22] = target: Fuc(a1-2)Gal(b1-4)GlcNAc(b1-2)[Fuc(a1-2)Gal(b1-4)GlcNAc(b1-4)]Man(a1-3)[Fuc(a1-2)Gal(b1-4)GlcNAc(b1-2)Man(a1-6)]Man(b1-4)GlcNAc(b1-4)GlcNAc
# Procedure, shortened: as §1
# [23] = target: Fuc(a1-2)Gal(b1-4)GlcNAc(b1-3)Gal(b1-4)GlcNAc
# Procedure, shortened: as §1
# [24] = target: Fuc(a1-2)Gal(b1-4)GlcNAc(b1-3)Gal(b1-4)GlcNAc(b1-2)Man(a1-3)[Fuc(a1-2)Gal(b1-4)GlcNAc(b1-3)Gal(b1-4)GlcNAc(b1-2)Man(a1-6)]Man(b1-4)GlcNAc(b1-4)GlcNAc
# Procedure, shortened: as §1
# [25] = target: Fuc(a1-2)Gal(b1-4)GlcNAc(b1-3)Gal(b1-4)GlcNAc(b1-3)Gal(b1-4)GlcNAc
# Procedure, shortened: as §1
# [26] = target: Fuc(a1-2)Gal(b1-4)GlcNAc(b1-3)GalNAc
# Procedure, shortened: as §1
# [27] = target: Fuc(a1-2)Gal(b1-4)GlcNAc(b1-3)[Fuc(a1-2)Gal(b1-4)GlcNAc(b1-6)]GalNAc
# Procedure, shortened: as §1
# [28] = target: Fuc(a1-2)Gal(b1-4)GlcNAc(b1-3)[Fuc(a1-3)[Gal(b1-4)]GlcNAc(b1-6)]Gal(b1-4)Glc
# Procedure, shortened: as §1
# [29] = target: Fuc(a1-2)Gal(b1-4)GlcNAc(b1-6)GalNAc
# Procedure, shortened: as §1
# [30] = target: Fuc(a1-2)Gal(b1-4)GlcNAc6S
# Procedure, shortened: as §1
# [31] = target: Fuc(a1-2)Gal(b1-4)[Fuc(a1-3)]GlcNAc
# Procedure, shortened: as §1
# [32] = target: Fuc(a1-2)Gal(b1-4)[Fuc(a1-3)]GlcNAc(b1-2)Man(a1-3)[Fuc(a1-2)Gal(b1-4)[Fuc(a1-3)]GlcNAc(b1-2)Man(a1-6)]Man(b1-4)GlcNAc(b1-4)[Fuc(a1-6)]GlcNAc
# Procedure, shortened: as §1
# [33] = target: Fuc(a1-2)Gal(b1-4)[Fuc(a1-3)]GlcNAc(b1-2)[Fuc(a1-2)Gal(b1-4)[Fuc(a1-3)]GlcNAc(b1-4)]Man(a1-3)[Fuc(a1-2)Gal(b1-4)[Fuc(a1-3)]GlcNAc(b1-2)Man(a1-6)]Man(b1-4)GlcNAc(b1-4)GlcNAc
# Procedure, shortened: as §1
# [34] = target: Fuc(a1-2)Gal(b1-4)[Fuc(a1-3)]GlcNAc(b1-3)Gal(b1-4)[Fuc(a1-3)]GlcNAc
# Procedure, shortened: as §1
# [35] = target: Fuc(a1-2)Gal(b1-4)[Fuc(a1-3)]GlcNAc(b1-3)Gal(b1-4)[Fuc(a1-3)]GlcNAc(b1-3)Gal(b1-4)[Fuc(a1-3)]GlcNAc
# Procedure, shortened: as §1
# [36] = target: Fuc(a1-2)Gal(b1-4)[Fuc(a1-3)]GlcNAc(b1-3)GalNAc
# Procedure, shortened: as §1
# [37] = target: Fuc(a1-2)Gal(b1-4)[Fuc(a1-3)]GlcNAc(b1-3)[Neu5Ac(a2-6)Gal(b1-4)GlcNAc(b1-6)]Gal(b1-4)Glc
# Procedure, shortened: as §1
# [38] = target: Fuc(a1-2)Gal3S(b1-4)GlcNAc
# Procedure, shortened: as §1
# [39] = target: Fuc(a1-2)Gal6S(b1-3)GlcNAc
# Procedure, shortened: as §1
binder,measurement,setting,value
B1,glycan array binding signal (z-score),Fuc(a1-2)Gal,-0.037
same,glycan array binding signal (z-score),Fuc(a1-2)Gal(b1-3)GalNAc,-0.76
same,glycan array binding signal (z-score),[1],-0.362
same,glycan array binding signal (z-score),[2],-0.692
same,glycan array binding signal (z-score),[3],-0.503
same,glycan array binding signal (z-score),[4],1.56
same,glycan array binding signal (z-score),[5],0.973
same,glycan array binding signal (z-score),Fuc(a1-2)Gal(b1-3)GlcNAc,-1.13
same,glycan array binding signal (z-score),[6],1.73
same,glycan array binding signal (z-score),[7],-0.779
same,glycan array binding signal (z-score),[8],-0.985
same,glycan array binding signal (z-score),[9],-0.377
same,glycan array binding signal (z-score),[10],-0.008
same,glycan array binding signal (z-score),[11],-0.109
same,glycan array binding signal (z-score),[12],0.331
same,glycan array binding signal (z-score),[13],1.45
same,glycan array binding signal (z-score),[14],0.542
same,glycan array binding signal (z-score),[15],0.03
same,glycan array binding signal (z-score),[16],-1.11
same,glycan array binding signal (z-score),[17],-0.967
same,glycan array binding signal (z-score),[18],1.08
same,glycan array binding signal (z-score),Fuc(a1-2)Gal(b1-4)Glc,0.723
same,glycan array binding signal (z-score),Fuc(a1-2)Gal(b1-4)Glc6S,1.22
same,glycan array binding signal (z-score),Fuc(a1-2)Gal(b1-4)GlcNAc,0.416
same,glycan array binding signal (z-score),[19],1.52
same,glycan array binding signal (z-score),[20],-0.34
same,glycan array binding signal (z-score),[21],2.43
same,glycan array binding signal (z-score),[22],1.85
same,glycan array binding signal (z-score),[23],-0.882
same,glycan array binding signal (z-score),[24],-0.614
same,glycan array binding signal (z-score),[25],1.62
same,glycan array binding signal (z-score),[26],-1.06
same,glycan array binding signal (z-score),[27],-0.363
same,glycan array binding signal (z-score),[28],0.295
same,glycan array binding signal (z-score),[29],1.08
same,glycan array binding signal (z-score),[30],0.295
same,glycan array binding signal (z-score),[31],0.22
same,glycan array binding signal (z-score),[32],-1.43
same,glycan array binding signal (z-score),[33],-0.365
same,glycan array binding signal (z-score),[34],-1.32
same,glycan array binding signal (z-score),[35],-0.065
same,glycan array binding signal (z-score),[36],0.987
same,glycan array binding signal (z-score),[37],-0.348
same,glycan array binding signal (z-score),[38],-0.817
same,glycan array binding signal (z-score),[39],1.35

# Rewritten as tab-separated lines: part of the list above.
binder	measurement	setting	value
B1	glycan array binding signal (z-score)	[12]	0.331
same	glycan array binding signal (z-score)	[13]	1.45
